Assay results taken from PubChem BioAssay AID330 (DTP/NCI, 2004).
The list does not hold the whole screen: it covers a few groups of compounds. Not every dose and run of a compound is shown. T/C: endpoint of the treated group in % of that of the vehicle group. Where survival is the endpoint, this PubChem deposit counts one and a half times the control or more as active, and values a quarter to a half above the control carry no call in these data; other NCI protocols may use other cut-offs. Schedule codes are those of the source, read here as Q, the interval in days (D) or hours (H), X, the number of doses. Some T/C values are marked as having no survivor count here; that says nothing about deaths at the dose. Some doses were run more than once; the results are listed from low to high.

Tested on: P388 leukemia ip, CD2F1 mice, survival T/C
Experiment: NCI In Vivo Anticancer Drug Screen. Data for tumor model P388 Leukemia (intraperitoneal) in CD2F1 (CDF1) mice
Settings: T/C endpoint: median survival time, higher T/C = longer survival
[1] = dose: 0.5 mg/kg/injection, schedule: Q01DX009 (ip), vehicle: saline + alcohol
[2] = dose: 1.0 mg/kg/injection, schedule: Q01DX009 (ip), vehicle: saline + alcohol
[3] = dose: 2.0 mg/kg/injection, schedule: Q01DX009 (ip), vehicle: saline + alcohol
[4] = dose: 4.0 mg/kg/injection, schedule: Q01DX009 (ip), vehicle: saline + alcohol
[5] = dose: 8.0 mg/kg/injection, schedule: Q01DX009 (ip), vehicle: saline + alcohol
[6] = dose: 0.31 mg/kg/injection, schedule: Q01DX009 (ip), vehicle: saline + alcohol
[7] = dose: 0.62 mg/kg/injection, schedule: Q01DX009 (ip), vehicle: saline + alcohol

CC1CCOC(=O)/C=C/C=C/C(=O)OC2CC3OC4C5OC5(CO)CCC4(COC(=O)C1O)C2(C)C31CO1 (stereo unspecified)
T/C (dose: 0.12 mg/kg/injection, schedule: Q01DX009 (ip), vehicle: saline + alcohol): 160 % of control [survivor count not shown]
T/C (dose: 0.25 mg/kg/injection, schedule: Q01DX009 (ip), vehicle: saline + alcohol): 169 % of control [survivor count not shown]
T/C [1]: 150 % of control [survivor count not shown]
T/C [2]: 160 % of control [survivor count not shown]
T/C [3]: 160 % of control [survivor count not shown]
T/C [4]: 157 % of control [survivor count not shown]
T/C [5]: 203 % of control [survivor count not shown]

CC(O)C1/C=C/C=C/C(=O)OC2CC3OC4C5OC5(C)C(O)CC4(COC(=O)C(O)C(C)CCO1)C2(C)C31CO1 (stereo unspecified)
T/C (dose: 0.16 mg/kg/injection, schedule: Q01DX009 (ip), vehicle: saline + alcohol): 150 % of control [survivor count not shown]
T/C [6]: 160 % of control [survivor count not shown]
T/C [7]: 166 % of control [survivor count not shown]
T/C (dose: 1.25 mg/kg/injection, schedule: Q01DX009 (ip), vehicle: saline + alcohol, evaluated on day 35): 229 % of control [survivor count not shown]
T/C (dose: 1.25 mg/kg/injection, schedule: Q01DX009 (ip), vehicle: saline + alcohol, evaluated on day 45): 200 % of control [survivor count not shown]
T/C (dose: 2.5 mg/kg/injection, schedule: Q01DX009 (ip), vehicle: saline + alcohol, evaluated on day 35): 227 % of control [survivor count not shown]
T/C (dose: 2.5 mg/kg/injection, schedule: Q01DX009 (ip), vehicle: saline + alcohol, evaluated on day 45): 206 % of control [survivor count not shown]
T/C (dose: 5.0 mg/kg/injection, schedule: Q01DX009 (ip), vehicle: saline + alcohol, evaluated on day 35): 321 % of control [survivor count not shown]
T/C (dose: 5.0 mg/kg/injection, schedule: Q01DX009 (ip), vehicle: saline + alcohol, evaluated on day 45): 240 % of control [survivor count not shown]
T/C (dose: 10.0 mg/kg/injection, schedule: Q01DX009 (ip), vehicle: saline + alcohol, evaluated on day 35): 321 % of control [survivor count not shown]
T/C (dose: 10.0 mg/kg/injection, schedule: Q01DX009 (ip), vehicle: saline + alcohol, evaluated on day 45): 268 % of control [survivor count not shown]

CC1CCOC(=O)/C=C/C=C/C(=O)OC2CC3OC4C5OC5(C)CCC4(COC(=O)C1O)C2(C)C31CO1 (stereo unspecified)
T/C [6]: 96 % of control [survivor count not shown]
T/C [7]: 110 % of control [survivor count not shown]
T/C (dose: 1.25 mg/kg/injection, schedule: Q01DX009 (ip), vehicle: saline + alcohol): 108 % of control [survivor count not shown]
T/C (dose: 2.5 mg/kg/injection, schedule: Q01DX009 (ip), vehicle: saline + alcohol): 118 % of control [survivor count not shown]
T/C (dose: 5.0 mg/kg/injection, schedule: Q01DX009 (ip), vehicle: saline + alcohol): 115 % of control [survivor count not shown]

C/C1=C\C(=O)OCC23CCC4(C)OC4C2OC2CC(OC(=O)/C=C/C=C/C(=O)OCC1)C3(C)C21CO1 (stereo unspecified)
T/C [1]: 125 [survivor count not shown] and 145 % of control [survivor count not shown]
T/C [2]: 125 [survivor count not shown] and 148 % of control [survivor count not shown]
T/C [3]: 137 [survivor count not shown] and 145 % of control [survivor count not shown]
T/C [4]: 154 [survivor count not shown] and 157 % of control [survivor count not shown]
T/C [5]: 158 [survivor count not shown] and 172 % of control [survivor count not shown]
T/C (dose: 16.0 mg/kg/injection, schedule: Q01DX009 (ip), vehicle: saline + alcohol): 99 [survivor count not shown] and 157 % of control [survivor count not shown]

CC1=C[C@H]2O[C@@H]3[C@H](O)[C@@H](O)[C@](C)([C@@]2(CO)CC1)[C@@]31CO1
T/C (dose: 0.5 mg/kg/injection, schedule: Q01DX009 (ip), vehicle: saline): 116 [survivor count not shown], 125 [survivor count not shown], 130 % of control [survivor count not shown]
T/C (dose: 1.0 mg/kg/injection, schedule: Q01DX009 (ip), vehicle: saline): 125 [survivor count not shown], 137 [survivor count not shown], 142 % of control [survivor count not shown]
T/C (dose: 2.0 mg/kg/injection, schedule: Q01DX009 (ip), vehicle: saline): 134 [survivor count not shown], 135 [survivor count not shown], 148 % of control [survivor count not shown]
T/C (dose: 4.0 mg/kg/injection, schedule: Q01DX009 (ip), vehicle: saline): 127 [survivor count not shown], 136 [survivor count not shown], 138 % of control [survivor count not shown]
T/C (dose: 8.0 mg/kg/injection, schedule: Q01DX009 (ip), vehicle: saline): 163 % of control [survivor count not shown]
T/C (dose: 16.0 mg/kg/injection, schedule: Q01DX009 (ip), vehicle: saline): 92 % of control [survivor count not shown]

CC1=CC2OC3CC4OC(=O)/C=C\C=C/C5(C(C)O)OCC/C(=C/C(=O)OCC2(CC1)C4(C)C31CO1)C5O (stereo unspecified)
T/C (dose: 0.25 mg/kg/injection, schedule: Q01DX005 (ip), vehicle: distilled water + Tween-80 + alcohol): 125 % of control [survivor count not shown]
T/C (dose: 0.5 mg/kg/injection, schedule: Q01DX005 (ip), vehicle: distilled water + Tween-80 + alcohol): 138 [survivor count not shown] and 144 % of control [survivor count not shown]
T/C (dose: 1.0 mg/kg/injection, schedule: Q01DX005 (ip), vehicle: distilled water + Tween-80 + alcohol): 152 [survivor count not shown] and 177 % of control [survivor count not shown]
T/C (dose: 2.0 mg/kg/injection, schedule: Q01DX005 (ip), vehicle: distilled water + Tween-80 + alcohol): 171 [survivor count not shown] and 198 % of control [survivor count not shown]

CC(O)C1/C=C/C=C/C(=O)OC2CC3OC4C5OC5(CO)CCC4(COC(=O)C(O)C(C)CCO1)C2(C)C31CO1 (stereo unspecified)
T/C (dose: 0.38 mg/kg/injection, schedule: Q01DX009 (ip), vehicle: saline + alcohol, evaluated on day 30): 139 % of control [survivor count not shown]
T/C (dose: 0.38 mg/kg/injection, schedule: Q01DX009 (ip), vehicle: saline + alcohol, evaluated on day 35): 177 % of control [survivor count not shown]
T/C (dose: 0.75 mg/kg/injection, schedule: Q01DX009 (ip), vehicle: saline + alcohol, evaluated on day 30): 148 % of control [survivor count not shown]
T/C (dose: 0.75 mg/kg/injection, schedule: Q01DX009 (ip), vehicle: saline + alcohol, evaluated on day 35): 186 % of control [survivor count not shown]
T/C (dose: 1.5 mg/kg/injection, schedule: Q01DX009 (ip), vehicle: saline + alcohol, evaluated on day 30): 153 % of control [survivor count not shown]
T/C (dose: 1.5 mg/kg/injection, schedule: Q01DX009 (ip), vehicle: saline + alcohol, evaluated on day 35): 192 % of control [survivor count not shown]
T/C (dose: 3.0 mg/kg/injection, schedule: Q01DX009 (ip), vehicle: saline + alcohol, evaluated on day 30): 166 % of control [survivor count not shown]
T/C (dose: 3.0 mg/kg/injection, schedule: Q01DX009 (ip), vehicle: saline + alcohol, evaluated on day 35): 266 % of control [survivor count not shown]
T/C (dose: 6.0 mg/kg/injection, schedule: Q01DX009 (ip), vehicle: saline + alcohol, evaluated on day 30): 189 % of control [survivor count not shown]
T/C (dose: 6.0 mg/kg/injection, schedule: Q01DX009 (ip), vehicle: saline + alcohol, evaluated on day 35): 321 % of control [survivor count not shown]
T/C (dose: 12.0 mg/kg/injection, schedule: Q01DX009 (ip), vehicle: saline + alcohol, evaluated on day 30): 184 % of control [survivor count not shown]
T/C (dose: 12.0 mg/kg/injection, schedule: Q01DX009 (ip), vehicle: saline + alcohol, evaluated on day 35): 110 % of control [survivor count not shown]
